Paper PMC11629795
These are yes or no findings as the source states them, for the method shown. In cells and extracts the contact can be indirect. Some binding calls cover weakened binding; strength is not graded here.

The chains behind the UniProt entries cited, without tags or fusion partners. Residues count along the entry.
UniProt Q9UHX3, residues 24-823: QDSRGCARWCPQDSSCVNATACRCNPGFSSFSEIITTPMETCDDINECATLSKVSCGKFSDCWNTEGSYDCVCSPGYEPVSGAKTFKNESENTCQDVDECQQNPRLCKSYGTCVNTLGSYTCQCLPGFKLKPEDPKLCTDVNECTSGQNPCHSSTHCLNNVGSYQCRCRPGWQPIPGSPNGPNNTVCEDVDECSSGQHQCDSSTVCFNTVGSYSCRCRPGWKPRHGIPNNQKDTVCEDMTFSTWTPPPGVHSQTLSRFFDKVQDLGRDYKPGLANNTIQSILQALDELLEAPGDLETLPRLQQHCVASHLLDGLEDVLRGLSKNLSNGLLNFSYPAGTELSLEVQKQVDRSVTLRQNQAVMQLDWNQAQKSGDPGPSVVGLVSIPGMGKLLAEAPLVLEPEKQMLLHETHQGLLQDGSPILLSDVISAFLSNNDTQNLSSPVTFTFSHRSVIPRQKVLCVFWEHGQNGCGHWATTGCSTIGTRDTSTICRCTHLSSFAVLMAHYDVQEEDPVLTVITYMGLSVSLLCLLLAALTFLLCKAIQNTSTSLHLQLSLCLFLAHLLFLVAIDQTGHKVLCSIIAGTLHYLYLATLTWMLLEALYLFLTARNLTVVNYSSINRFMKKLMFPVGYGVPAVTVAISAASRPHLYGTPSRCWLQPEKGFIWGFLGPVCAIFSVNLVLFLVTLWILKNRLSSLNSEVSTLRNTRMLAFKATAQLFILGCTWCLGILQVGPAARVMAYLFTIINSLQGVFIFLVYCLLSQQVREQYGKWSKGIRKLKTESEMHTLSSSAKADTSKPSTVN
UniProt P30679: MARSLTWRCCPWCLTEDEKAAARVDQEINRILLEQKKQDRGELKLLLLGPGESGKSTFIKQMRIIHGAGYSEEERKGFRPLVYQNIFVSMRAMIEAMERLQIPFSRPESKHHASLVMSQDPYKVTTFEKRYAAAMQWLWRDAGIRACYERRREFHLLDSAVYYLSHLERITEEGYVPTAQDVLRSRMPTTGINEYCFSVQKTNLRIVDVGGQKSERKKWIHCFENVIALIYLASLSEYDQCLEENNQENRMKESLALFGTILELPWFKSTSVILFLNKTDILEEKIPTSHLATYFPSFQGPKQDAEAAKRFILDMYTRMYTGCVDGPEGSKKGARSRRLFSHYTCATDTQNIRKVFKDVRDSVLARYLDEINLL

Tests used:
[1] = molecular target: CD312 (human (in CD3+ T cells from children's bone marrow)) (UniProt Q9UHX3); assay: proximity ligation; in situ DuoLink PLA kit (Sigma-Aldrich) on treated cells fixed with 4% paraformaldehyde; primary antibodies overnight
[2] = molecular target: CD312 (human (in CD3+ T cells from children's bone marrow)) (UniProt Q9UHX3); assay: co-IP; lysate of treated cells (40 mM HEPES pH 7.4, 0.5% Triton X-100, 2 mM EDTA, protease inhibitors); antibody overnight at 4°C, protein A/G agarose beads 4 h; SDS-PAGE and western blot; precipitating antibody not stated

binding [1]: binds
binding [2]: binds
Substance: GNA15 (from UniProt P30679 1-374)
